These are yes or no findings as the source states them, for the method shown. Binding seen in cells or lysates may run through a third protein. Some binding calls cover weakened binding; strength is not graded here. Each block holds one substance with its values, some of them ahead of it.
Assays:
[1] = target: Galectin-3 (human (endogenous in TPC1)) (UniProt P17931); test: co-IP; TPC1 cells treated with 0.5 or 1 uM DXR for 24 h; lysates in buffer with 1% CHAPS; immunoprecipitated with polyclonal anti-Bax or polyclonal anti-Gal-3 antibody and protein G Sepharose at 4°C, immunoblot; with 1% GCS-100/MCP pretreatment (3 h) plus DXR the interaction was suppressed significantly
[2] = target: mutant Gal-3 G182A (V5-tagged) (human) (UniProt P17931); test: co-IP; 293 cells transiently transfected for 48 h with pcDNA6/V5 plasmids; lysates immunoprecipitated with anti-V5 antibody, immunoblot
[3] = target: Bax (human (endogenous in TPC1)) (UniProt Q07812); test: co-IP; TPC1 cells treated with 0.5 or 1 uM DXR for 24 h; lysates in buffer with 1% CHAPS; immunoprecipitated with polyclonal anti-Bax or polyclonal anti-Gal-3 antibody and protein G Sepharose at 4°C, immunoblot; with 1% GCS-100/MCP pretreatment (3 h) plus DXR the interaction was suppressed significantly

By UniProt entry, the sequences of proteins in these tests, tags left out. Where a name states a change or a piece, a line headed by the entry shows the natural chain unless it says otherwise.
UniProt P17931: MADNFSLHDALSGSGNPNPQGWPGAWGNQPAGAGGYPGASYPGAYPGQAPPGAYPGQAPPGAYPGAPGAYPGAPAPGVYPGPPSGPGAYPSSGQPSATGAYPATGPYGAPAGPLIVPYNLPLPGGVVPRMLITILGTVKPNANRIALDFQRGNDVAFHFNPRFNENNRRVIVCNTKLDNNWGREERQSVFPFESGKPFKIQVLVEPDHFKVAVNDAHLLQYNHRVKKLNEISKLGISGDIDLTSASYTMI
UniProt Q07812: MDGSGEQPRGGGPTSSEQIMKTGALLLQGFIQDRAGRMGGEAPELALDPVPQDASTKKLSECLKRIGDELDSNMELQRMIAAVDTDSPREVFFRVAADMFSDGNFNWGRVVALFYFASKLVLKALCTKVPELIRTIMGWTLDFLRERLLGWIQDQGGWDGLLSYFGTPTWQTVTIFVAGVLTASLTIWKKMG

binding [1]: binds
Substance: Bax (from UniProt Q07812 1-192)

binding [2]: binds weakly
Substance: Bax (in 293 cells) (from UniProt Q07812 1-192)

binding [3]: binds
Substance: Galectin-3 (from UniProt P17931 1-250)

— publication PMC4259453
